In the test the target is bovine trypsin (bovine) (UniProt P00760). The experiment in a line: inhibition kinetics of bovine trypsin, BApNA substrate.

By UniProt entry, the sequences of proteins in these tests, tags left out. Residues count along the entry.
UniProt P00760, residues 24-246: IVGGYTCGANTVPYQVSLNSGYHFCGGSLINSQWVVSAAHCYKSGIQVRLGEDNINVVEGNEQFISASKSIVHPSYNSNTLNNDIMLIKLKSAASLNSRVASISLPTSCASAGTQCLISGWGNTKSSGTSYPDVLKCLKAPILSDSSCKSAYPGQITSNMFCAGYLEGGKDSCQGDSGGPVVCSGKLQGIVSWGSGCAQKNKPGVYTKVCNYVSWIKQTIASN

These are yes or no findings as the source states them, for the method shown. Some entries that bind do so weakly or less than the wild type.

With EPICTNCCAGLKGCNYYNADGTFICEGESDPNHPKACPKNCDPNIAYS [inhibitory repeat domain IRD-7 of Capsicum annuum Pin-II proteinase inhibitors (CanPIs)], the binding result is listed as “binds”.
